Values joined by “and” are separate entries in the source; they are usually repeats but may differ in a detail not shown here. Equal entries are not always repeated. Part of at least one peptide drawing is inferred or uncertain, most often the ends. Where a SMILES comes first, the peptide text is derived from it.
Experiments:
purified human IR [1] = target: T1, purified human IR (Homo sapiens, UniProt P06213); assay: Substrate phosphorylation with poly([Glu,Tyr];4:1) by IR tyrosine kinase; assay type: biochemical
T1 construct: from tissue; host or cells: human placenta

By UniProt entry, the sequences of proteins in these tests, tags left out. Residues count along the entry.
UniProt P06213, 28-758 limits assumed: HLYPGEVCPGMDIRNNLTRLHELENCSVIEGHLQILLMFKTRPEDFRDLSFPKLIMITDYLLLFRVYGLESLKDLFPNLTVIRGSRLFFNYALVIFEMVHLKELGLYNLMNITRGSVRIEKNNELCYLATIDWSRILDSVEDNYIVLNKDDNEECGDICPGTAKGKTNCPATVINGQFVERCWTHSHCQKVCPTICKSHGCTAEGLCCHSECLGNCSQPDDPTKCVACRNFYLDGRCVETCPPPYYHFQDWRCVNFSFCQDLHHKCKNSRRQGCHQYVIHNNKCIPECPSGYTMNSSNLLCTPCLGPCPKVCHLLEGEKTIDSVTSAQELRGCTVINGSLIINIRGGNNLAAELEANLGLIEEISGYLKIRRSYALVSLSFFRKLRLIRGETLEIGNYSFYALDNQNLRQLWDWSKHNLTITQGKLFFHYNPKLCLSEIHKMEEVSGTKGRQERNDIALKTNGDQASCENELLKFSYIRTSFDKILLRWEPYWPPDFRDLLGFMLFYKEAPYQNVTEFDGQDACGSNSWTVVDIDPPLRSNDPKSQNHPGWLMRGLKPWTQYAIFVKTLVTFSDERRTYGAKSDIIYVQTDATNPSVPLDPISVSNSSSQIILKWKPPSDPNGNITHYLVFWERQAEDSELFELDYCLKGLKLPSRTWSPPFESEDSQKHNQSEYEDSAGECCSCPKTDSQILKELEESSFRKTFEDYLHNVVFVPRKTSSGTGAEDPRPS
UniProt P06213, 763-1382 limits assumed: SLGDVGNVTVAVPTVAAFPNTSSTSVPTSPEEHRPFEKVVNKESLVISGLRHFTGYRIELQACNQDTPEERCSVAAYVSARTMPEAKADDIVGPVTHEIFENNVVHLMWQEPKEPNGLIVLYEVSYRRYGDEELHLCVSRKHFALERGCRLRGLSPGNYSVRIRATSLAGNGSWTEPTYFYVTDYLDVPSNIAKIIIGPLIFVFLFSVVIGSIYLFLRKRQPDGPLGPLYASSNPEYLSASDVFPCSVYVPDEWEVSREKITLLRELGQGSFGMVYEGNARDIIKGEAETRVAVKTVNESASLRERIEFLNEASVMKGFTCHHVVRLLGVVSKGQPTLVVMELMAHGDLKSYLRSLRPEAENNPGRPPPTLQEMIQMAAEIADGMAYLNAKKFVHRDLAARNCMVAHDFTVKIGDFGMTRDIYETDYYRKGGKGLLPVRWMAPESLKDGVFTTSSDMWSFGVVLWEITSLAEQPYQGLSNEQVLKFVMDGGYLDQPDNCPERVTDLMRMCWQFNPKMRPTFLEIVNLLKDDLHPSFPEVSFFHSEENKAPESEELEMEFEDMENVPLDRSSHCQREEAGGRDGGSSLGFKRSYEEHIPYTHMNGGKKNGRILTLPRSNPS
UniProt P06213, 980-1382 limits assumed: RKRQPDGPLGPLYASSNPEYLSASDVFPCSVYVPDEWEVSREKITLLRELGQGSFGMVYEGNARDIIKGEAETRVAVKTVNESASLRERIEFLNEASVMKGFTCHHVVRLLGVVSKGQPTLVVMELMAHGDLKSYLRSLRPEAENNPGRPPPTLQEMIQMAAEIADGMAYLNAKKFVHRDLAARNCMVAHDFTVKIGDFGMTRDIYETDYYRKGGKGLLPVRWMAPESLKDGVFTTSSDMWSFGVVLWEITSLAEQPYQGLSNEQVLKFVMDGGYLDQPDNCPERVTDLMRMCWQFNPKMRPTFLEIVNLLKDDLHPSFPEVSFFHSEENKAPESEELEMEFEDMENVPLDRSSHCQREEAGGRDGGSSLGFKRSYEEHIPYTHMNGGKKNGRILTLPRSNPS

purified human IR [2] = target: T1, purified human IR; assay: IR autophosphorylation (tyrosine kinase activity of purified insulin receptor); assay type: biochemical
[3] = target: T2, insulin receptor kinase domain (IRKD) (Homo sapiens, UniProt P06213); assay: Phosphorylation of cloned cytoplasmic insulin receptor kinase domain (IRKD); assay type: biochemical
T2 construct: the cloned cytoplasmic kinase domain (IRKD); made in house; host or cells: insect cells (baculovirus expression vector)

purified human IR [4] = target: T1, purified human IR; assay: Plate assay for 125I-insulin binding to purified receptor
rat adipocytes = assay: D-[14C]-glucose uptake in rat adipocytes; assay type: cell-based
[5] = Blood glucose levels in whole rats after i.v. injection; assay type: in vivo, rat
[6] = Organ uptake of 14C-2-deoxyglucose after i.v. injection; assay type: in vivo, rat; details: 14C-2-deoxyglucose 60 min after injection, organ 14C measured 30 min later
[7] = 3 μM peptide, IR and IRKD at comparable activities
[8] = IR tyrosine kinase activity induced with 10^6 M insulin, at a concentration of μM peptide

Row | Compound | substrate phosphorylation, K^k -(61-85) compared with D^k -(61-85) (purified human IR [1]; insulin-induced) | effect on insulin-induced IR autophosphorylation (purified human IR [2]; [7]) | effect on autophosphorylation at all insulin concentrations (purified human IR [2]; 10 μM peptide) | effect on IR autophosphorylation (purified human IR [2]; [8]) | effect on substrate (poly-[E,Y]) phosphorylation (purified human IR [1]; [8]) | effect on insulin receptor kinase domain phosphorylation [3, 7] | effect on IRKD phosphorylation ([3]; 10 μM peptide, 1 hr on ice with maximally autophosphorylated 32P-labeled IR, then 500 μM cold ATP 0-60 min) | effect on the binding of insulin to IR (purified human IR [4]) | incubation time of cells with peptide for maximal effect in vitro (rat adipocytes) [min] | peptide concentration giving maximal effect on glucose uptake (rat adipocytes) | increase of glucose uptake compared with insulin (rat adipocytes; 30 μM peptide, low concentrations of insulin (plasma level and lower)) | effect on cellular glucose uptake (rat adipocytes; absence and presence of insulin) | maximal glucose uptake, fold of basal (rat adipocytes; insulin plus 30 μM D^k -(61-85)) | levels of serum-insulin ([5]; after peptide injection) | time at which blood glucose rose back to about the original value ([5]; i.v. 2.5 mg/kg peptide alone) | blood glucose, % of original value at about 20 min ([5]; i.v., D^k -(61-85) 2.5 mg/kg, insulin 10 μg/kg, starved, pentobarbital-anesthetized rats) | effect on blood glucose in whole animals ([5]; intravenous injection of 2.5 mg/kg) | main target organs for peptide mediated glucose uptake [6] | main target organs for peptide mediated glucose uptake ([6]; listed as peptide)
1 | CC[C@H](C)[C@H](NC(=O)[C@H](CCC(N)=O)NC(=O)[C@@H](NC(=O)[C@H](CC(N)=O)NC(=O)[C@H](CCCNC(=N)N)NC(=O)[C@@H](N)CCC(=O)O)[C@@H](C)O)C(=O)N[C@@H](C)C(=O)N[C@@H](CCCCN)C(=O)NCC(=O)N[C@@H](CC(N)=O)C(=O)N[C@@H](CCC(=O)O)C(=O)N[C@@H](CCC(N)=O)C(=O)N[C@H](C(=O)N[C@@H](Cc1ccccc1)C(=O)N[C@@H](CCCNC(=N)N)C(=O)N[C@H](C(=O)N[C@@H](CC(N)=O)C(=O)N[C@@H](CC(C)C)C(=O)N[C@@H](CCCNC(=N)N)C(=O)N[C@H](C(=O)N[C@@H](C)C(=O)N[C@@H](CC(C)C)C(=O)N[C@@H](CCCNC(=N)N)C(=O)N[C@@H](Cc1ccc(O)cc1)C(=O)N[C@@H](Cc1ccc(O)cc1)C(=O)O)[C@@H](C)O)C(C)C)[C@@H](C)CC [K^k-(61-85)] (H-ERNTQIAKGNEQIFRVNLRTALRYY-OH) | no difference is observed | – | – | – | – | – | – | – | – | – | – | – | – | – | – | – | – | – | –
2 | CC[C@H](C)[C@H](NC(=O)[C@H](CCC(N)=O)NC(=O)[C@@H](NC(=O)[C@H](CCC(=O)O)NC(=O)[C@H](CCCNC(=N)N)NC(=O)[C@@H](N)CCC(=O)O)[C@@H](C)O)C(=O)N[C@@H](C)C(=O)N[C@@H](CCCCN)C(=O)NCC(=O)N[C@@H](CC(N)=O)C(=O)N[C@@H](CCC(=O)O)C(=O)N[C@@H](CCC(N)=O)C(=O)N[C@@H](CO)C(=O)N[C@@H](Cc1ccccc1)C(=O)N[C@@H](CCCNC(=N)N)C(=O)N[C@H](C(=O)N[C@@H](CC(=O)O)C(=O)N[C@@H](CC(C)C)C(=O)N[C@@H](CCCNC(=N)N)C(=O)N[C@H](C(=O)N[C@@H](CC(C)C)C(=O)N[C@@H](CC(C)C)C(=O)N[C@@H](CCCNC(=N)N)C(=O)N[C@@H](Cc1ccc(O)cc1)C(=O)N[C@@H](Cc1ccc(O)cc1)C(=O)O)[C@@H](C)O)C(C)C [D^k-(61-85), ERETQIAKGNEQSFRVDLRTLLRYY] (H-ERETQIAKGNEQSFRVDLRTLLRYY-OH) | – | inhibits | inhibits autophosphorylation at all insulin concentrations | strongly inhibited | strongly inhibited | but not the insulin receptor kinase domain phosphorylation | does not affect IRKD phosphorylation | no effect | 20 | 15 µM and 10 to 20 µM | as much or more than insulin on a molar basis | enhances cellular glucose uptake both in the absence and presence of insulin | 14-18 fold | does not result in increased levels of serum-insulin | about 90 min | about 65% | causes a decrease in blood glucose | particularly pronounced in muscle, liver and kidney | skeletal muscle, liver and kidney

Source: US5073540A, “Composite binding site drugs” (Receptron, priority 1989, dated 1991)
